# ChEMBL document CHEMBL1909046, “DrugMatrix in vitro pharmacology data”
# Chains of the proteins cited; added tags and fusions are not shown.
# UniProt P41143, whole entry: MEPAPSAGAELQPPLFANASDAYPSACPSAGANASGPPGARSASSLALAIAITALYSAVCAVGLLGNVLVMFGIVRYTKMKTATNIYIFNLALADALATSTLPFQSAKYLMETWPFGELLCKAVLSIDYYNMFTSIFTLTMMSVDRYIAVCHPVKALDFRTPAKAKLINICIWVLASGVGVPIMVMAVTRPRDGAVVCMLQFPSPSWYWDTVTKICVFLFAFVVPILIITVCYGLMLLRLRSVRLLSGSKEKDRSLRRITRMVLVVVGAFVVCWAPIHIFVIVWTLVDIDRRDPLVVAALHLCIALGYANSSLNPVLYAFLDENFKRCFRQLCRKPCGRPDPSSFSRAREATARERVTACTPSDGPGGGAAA
# UniProt P27361, whole entry: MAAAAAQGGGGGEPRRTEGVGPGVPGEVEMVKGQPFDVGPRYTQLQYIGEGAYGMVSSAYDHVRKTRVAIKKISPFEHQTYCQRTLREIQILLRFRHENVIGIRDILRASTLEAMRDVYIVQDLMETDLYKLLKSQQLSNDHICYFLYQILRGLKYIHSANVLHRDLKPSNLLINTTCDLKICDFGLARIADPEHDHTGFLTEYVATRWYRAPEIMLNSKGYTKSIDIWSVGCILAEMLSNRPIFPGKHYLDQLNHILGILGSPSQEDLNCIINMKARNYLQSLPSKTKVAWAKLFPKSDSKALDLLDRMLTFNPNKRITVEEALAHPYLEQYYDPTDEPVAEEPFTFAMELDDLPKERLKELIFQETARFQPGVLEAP
# Assays:
# [1] = biological target: T1, Type-2 angiotensin II receptor (Homo sapiens, UniProt P50052); type: cell-based; settings: cho-k1; note: in other assays of this panel Not Active means under 50% inhibition at 10 µM
# T1 sequence (P50052 whole entry): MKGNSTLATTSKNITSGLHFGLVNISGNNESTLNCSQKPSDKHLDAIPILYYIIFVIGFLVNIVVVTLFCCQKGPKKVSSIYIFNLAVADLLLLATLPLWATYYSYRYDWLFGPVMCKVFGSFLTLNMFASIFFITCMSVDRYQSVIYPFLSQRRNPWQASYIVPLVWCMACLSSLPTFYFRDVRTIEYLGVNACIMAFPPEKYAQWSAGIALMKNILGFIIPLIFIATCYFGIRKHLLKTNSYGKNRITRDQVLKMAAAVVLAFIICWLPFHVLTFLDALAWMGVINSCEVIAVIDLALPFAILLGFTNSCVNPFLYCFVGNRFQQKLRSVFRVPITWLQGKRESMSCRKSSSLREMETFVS
# [2] = biological target: T2, Nitric oxide synthase, inducible (Mus musculus, UniProt P29477); design: species or system Escherichia coli;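 note: inhibition of iNOS enzyme activity measured with L-arginine as substrate; in other assays of this panel Not Active means under 50% inhibition at 10 µM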
# T2 sequence (P29477 whole entry): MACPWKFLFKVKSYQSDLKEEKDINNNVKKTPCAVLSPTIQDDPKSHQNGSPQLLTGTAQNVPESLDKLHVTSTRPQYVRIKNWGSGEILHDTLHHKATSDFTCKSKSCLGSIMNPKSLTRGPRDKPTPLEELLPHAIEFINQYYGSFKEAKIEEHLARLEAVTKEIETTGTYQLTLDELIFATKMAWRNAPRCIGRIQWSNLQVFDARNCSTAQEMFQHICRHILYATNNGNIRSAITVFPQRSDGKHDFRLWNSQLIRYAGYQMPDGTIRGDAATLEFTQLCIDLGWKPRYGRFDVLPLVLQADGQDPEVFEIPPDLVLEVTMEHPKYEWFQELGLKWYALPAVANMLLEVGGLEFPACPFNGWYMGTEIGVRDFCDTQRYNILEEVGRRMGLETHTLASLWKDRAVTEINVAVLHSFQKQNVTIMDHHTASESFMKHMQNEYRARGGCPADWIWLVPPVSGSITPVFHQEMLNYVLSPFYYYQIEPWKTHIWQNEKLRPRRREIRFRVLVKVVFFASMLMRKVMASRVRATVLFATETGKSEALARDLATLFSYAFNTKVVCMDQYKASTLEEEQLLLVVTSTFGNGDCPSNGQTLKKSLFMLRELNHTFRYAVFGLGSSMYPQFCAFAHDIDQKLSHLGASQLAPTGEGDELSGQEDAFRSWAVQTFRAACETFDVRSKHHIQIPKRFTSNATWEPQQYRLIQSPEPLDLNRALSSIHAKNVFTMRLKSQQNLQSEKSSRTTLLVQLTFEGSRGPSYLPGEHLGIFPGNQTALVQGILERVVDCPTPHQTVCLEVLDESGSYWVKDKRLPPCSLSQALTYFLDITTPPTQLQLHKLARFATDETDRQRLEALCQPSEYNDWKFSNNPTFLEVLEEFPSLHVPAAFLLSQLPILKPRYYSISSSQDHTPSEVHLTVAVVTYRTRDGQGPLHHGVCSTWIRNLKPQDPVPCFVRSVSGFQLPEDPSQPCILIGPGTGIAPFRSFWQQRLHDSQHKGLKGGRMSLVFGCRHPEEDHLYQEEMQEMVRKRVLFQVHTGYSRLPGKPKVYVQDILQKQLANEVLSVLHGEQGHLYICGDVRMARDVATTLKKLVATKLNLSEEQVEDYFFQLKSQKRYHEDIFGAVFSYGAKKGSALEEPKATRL
# [3] = biological target: Delta-type opioid receptor (Homo sapiens, UniProt P41143); type: cell membranes, HEK293, Membrane; note: in other assays of this panel Not Active means under 50% inhibition at 10 µM
# Progesterone receptor = biological target: T3, Progesterone receptor (Bos taurus, UniProt Q690N0); assay: DRUGMATRIX: Progesterone radioligand binding (ligand: [3H] R-5020); type: tissue-based, Uterus; settings: Not Active = under 50% inhibition at 10 µM
# T3 sequence (Q690N0 whole entry): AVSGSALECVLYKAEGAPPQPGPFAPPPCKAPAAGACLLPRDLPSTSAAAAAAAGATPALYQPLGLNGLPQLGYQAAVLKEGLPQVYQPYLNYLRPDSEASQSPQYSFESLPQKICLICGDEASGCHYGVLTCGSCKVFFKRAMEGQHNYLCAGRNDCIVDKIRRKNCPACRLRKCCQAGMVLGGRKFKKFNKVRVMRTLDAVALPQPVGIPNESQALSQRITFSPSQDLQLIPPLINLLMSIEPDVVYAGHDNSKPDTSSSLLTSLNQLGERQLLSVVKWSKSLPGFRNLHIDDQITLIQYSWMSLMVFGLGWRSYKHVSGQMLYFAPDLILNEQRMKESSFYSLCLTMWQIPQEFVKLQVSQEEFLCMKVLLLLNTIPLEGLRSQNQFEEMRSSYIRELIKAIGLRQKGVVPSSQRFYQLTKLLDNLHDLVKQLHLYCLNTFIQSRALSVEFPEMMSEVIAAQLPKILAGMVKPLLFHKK
# [4] = biological target: Mitogen-activated protein kinase 3 (Homo sapiens, UniProt P27361); assay: DRUGMATRIX: Protein Serine/Threonine Kinase, ERK1 enzyme inhibition (substrate: Myelin Basic Protein); design: species or system Escherichia coli; settings: Not Active = under 50% inhibition at 10 µM
# [5] = biological target: Receptor tyrosine-protein kinase erbB-2 (Homo sapiens, UniProt P04626); type: cell-based; settings: insect cells;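 note: inhibition of HER2 kinase enzyme activity, measured with Poly(Glu:Tyr) as the phosphorylation substrate; in other assays of this panel Not Active means under 50% inhibition at 10 µM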
Compound,IC50 [1],IC50 [2],IC50 ([3]; hek293),IC50 (Progesterone receptor),IC50 [4],IC50 [5],Ki [3],IC50 ([3]; read-out: IC50)
NC(=O)C1CCN(CCCN2c3ccccc3Sc3ccc(Cl)cc32)CC1 [PIPAMAZINE],Not Active,Not Active,Not Active,Not Active,Not Active,Not Active,–,–
CN(C)CCOC(c1ccccc1)c1ccccc1.Cn1c(=O)c2[nH]c(Cl)nc2n(C)c1=O [DIMENHYDRINATE],Not Active,–,Not Active,Not Active,–,Not Active,–,–
Clc1ccc(CO/N=C(\Cn2ccnc2)c2ccc(Cl)cc2Cl)c(Cl)c1 [OXICONAZOLE],Not Active,Not Active,–,Not Active,Not Active,Not Active,1.87 µM,5.31 µM
C[C@H]1C[C@H]2[C@@H]3CCC4=CC(=O)C=C[C@]4(C)[C@@]3(F)[C@@H](O)C[C@]2(C)[C@@]1(O)C(=O)COP(=O)(O)O [BETAMETHASONE PHOSPHORIC ACID],Not Active,Not Active,Not Active,Not Active,Not Active,Not Active,–,–
